## Screening data, single-dose tests

From ChEMBL document CHEMBL3988442, “University of Dundee, Small-Polar-MMV Screening Library” (2021).

The filed quantity is “Percent Effect” (%). How 0% and 100% were set is not recorded. Most values in the screen are low, and negative values occur. Compounds were drawn at random from those tested, without regard to their results. Two or more numbers in one place are separate tests of the same structure; such repeats can differ widely.

A: 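Phenotypic screen: M. tuberculosis growth, glucose 7H9 medium, 3 days; the read-out is not stated. Tested at 50 µM. The record gives no direction; compounds that gave an IC50 in retests scored well above the rest, so higher reads as more growth inhibition. Of about 69,000 compounds tested this way, about 760 (1.1%) reached 50% or more in at least one test.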
B: 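Whole-cell growth test on Mycobacterium tuberculosis, read after 4 days in a medium based on cholesterol and the lipid DPPC; the read-out is not stated. Concentration: 50 µM. Direction is inferred from retests: higher values go with more growth inhibition. About 69,000 compounds were tested under these conditions; 0.54% (about 370) showed 50% or more at least once.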

structure	A	B
CC(C)c1cnc(CN(C)C2CCN(CCc3ccncc3)C2)o1 (stereo not shown)	-3.295% and -8.999%	-30.95%
Cc1cc(CN2CCN(C(=O)NC(C)c3ccncc3)CC2)on1 (stereo not shown)	-14.71%	9.751%
CS(=O)(=O)N[C@@H]1CCN(Cc2ccncc2)[C@H]1Cc1cccnc1	2.129%	-8.152%
CCCS(=O)(=O)NCC1CCOc2ccccc2C1 (stereo not shown)	-20.82%	-13.17%
Cc1nc(C(=O)N2CCOC(Cc3ccccc3)C2)co1 (stereo not shown)	14.41%	2.309%
CC(=O)N1CCN([C@@H]2CN(C(=O)Cc3ccccc3C)C[C@H]2O)CC1	-13.53%	-3.785%
COCC(=O)N1CCN(C(C)=O)C[C@@H]1C(=O)OC	-9.08% and -47.02%	-41.56%
Cc1nc(CN(C)C(=O)Nc2cccc(COC(C)C)c2)no1	-8.494%	0.1087%
CC1(C)Cc2ccc(C(=O)NC3CCS(=O)(=O)C3)c(O)c2O1 (stereo not shown)	15.99%	17.79%
CCS(=O)(=O)NCC1OCCc2cn(CCOC)nc21 (stereo not shown)	26.38%	-2.756%
CC(=O)N1N=C(c2ccccc2)OC1C(=O)NCCc1cccc(Cl)c1 (stereo not shown)	-21.01%	-16.62%
CCc1ccc(C(N)c2cccc(S(C)(=O)=O)c2)cc1 (stereo not shown)	-11.55%	-13.92%
Cc1cc(NCC(=O)NCC(F)(F)F)nc(-c2ccncc2)n1	-0.4773% and -30.98%	-18.47%
CN(Cc1ncnn1C)C(=O)CCCn1ccc2cc(Cl)ccc21	38.91% and 20.62%	25.78%
CC(=O)CSc1sc2c(O)cc(=O)[nH]c2c1C(N)=O	1.976%	-5.221%
Cn1cc(C(=O)Nc2cccc(Oc3ccncc3)c2)ccc1=O	-1.204%	0.5802%
CC(C)c1nc(CN(C)Cc2ccc(F)cc2)cs1	15.57%	16.75%
COc1c(C2CCCN2c2ncnc3c2cnn3C)c(C)nn1C (stereo not shown)	-27.16%	-1.673%
CCS(=O)(=O)c1ccc2oc([C@H]3CCN(Cc4cccnc4)C3)nc2c1	-7.759% and -3.639%	-17.65%
N#Cc1cc(NS(=O)(=O)CC2CCCCO2)ccc1F (stereo not shown)	4.001%	16.13%
Cc1cc(N2CCCC(OC(=O)CCN3CCCC3=O)C2)nc(C)n1 (stereo not shown)	-23.38%	-32.08%
CC1CCCCN1Cc1nc(Cc2ccccc2)no1 (stereo not shown)	-3.784%	-17.05%
Cn1cc(CNCC(c2ccc(Cl)cc2)n2cccn2)cn1 (stereo not shown)	28.8% and 11.93%	-1.331%
O=C(O)CC(O)(CC(=O)O)C(=O)O.OCCN(Cc1ccncc1)CC1(c2ccc(Cl)cc2)CCCC1	12.82%	3.002%
CCCC(=O)N1CCc2c(CNS(C)(=O)=O)cncc2C1.Cl	1.082%	-19.86%
Cc1nc(N2CCCC2)nc2c1CCN(C(=O)NC(C)C)CC2	-26.74%	-38.36%
Cc1cc(C)c(CNc2ncnc3ccccc23)c(=O)[nH]1	24.89%	13.57%
O=C(O)C(F)(F)F.[H][C@]12CN(Cc3cc(C)on3)C[C@@]1([H])OCCN(C(=O)c1cccn1C)C2	-1.541% and 15.56%	10.72%
CC(CS(C)(=O)=O)N(C(=O)Nc1cc(F)ccc1Cl)C1CC1 (stereo not shown)	-7.261%	-29.06%
CS(=O)(=O)CC(=O)NCC1OCCc2cn(CC3CC3)nc21 (stereo not shown)	14.14% and 6.791%	-6.876% and -9.05%
NC(=O)C1CCCN1Cc1ccccc1NC(=O)Cc1cccc(F)c1 (stereo not shown)	25.58%	1.064%
Cn1cnc2c1CCN(Cc1csc(C3CCCCC3)n1)C2	-8.546%	-23.31%
COCCCC1(C(=O)O)CCCN(Cc2ccccc2C)C1 (stereo not shown)	27.78%	-11.08%
CN(Cc1cccc(F)c1)Cc1nc2c(cnn2C)c(=O)[nH]1	-20.12%	-15.66%
Cc1cccc(NCc2nn(C)c(=O)[nH]2)c1	4.382%	3.432%
Cc1ccc(Cc2sc(NC(=O)C(C)S(C)(=O)=O)nc2C)cc1 (stereo not shown)	-18.28%	0.3987%
Cc1csc(N2CCN(Cc3ccccn3)CC2)n1	-2.628%	-0.5074%
CCCNc1nnc(S(=O)(=O)CCOCC)s1	8.592%	10.88%
Cc1cc(CN(C)C(=O)c2ccc(Cl)c(N3CCCC3=O)c2)no1	-51.46% and -1.652%	-13.73%
CC(C)(C)n1nc(C(=O)NCC2(C(N)=O)CCOCC2)cc1C1CC1	23.43%	7.412%
Cc1ccc(S(=O)(=O)NCCc2nnc[nH]2)c2cccnc12	-12.25%	-9.517% and -7.822%
COCCNC(=O)c1cc(C)nc(C2CCN(C)CC2)n1	19.08%	2.111%
Cc1noc(CN(CCc2ccco2)Cc2cccc(C#N)c2)n1	15.98%	22.22%
CC(C)N1CCC2(CCN(C(=O)c3cccnc3)CC2)C1.O=C(O)C(F)(F)F.O=C(O)C(F)(F)F	-9.01%	-25.82%
CCN1CCC2(CCC1=O)CN(c1cnc3ccccc3n1)CCN2C (stereo not shown)	-10.91%	-9.633% and 3.101%
CCSCCNc1nc(-c2ccccn2)nc2c1c(C)nn2C	4.556% and -3.569%	12.68%
Cc1nc(N(C)C)nc(NCCc2cnccn2)c1C	15.47%	-4.678%
COCC(=O)N1C[C@@H](C)[C@](O)(C(C)C)C1	25.06%	-10.41% and 10.91%
COc1cc(C(=O)N(C)C)ccc1NC(=O)c1ccsc1	-19.12%	-0.6705% and -6.995%
O=C(O)C(F)(F)F.O=C(c1c[nH]cn1)N1CCC(F)(F)C2(CCN(c3cnccn3)C2)C1 (stereo not shown)	1.484% and -11.89%	13.51% and -24.64%
CC(NC(=O)NCCCN1CCCC1)c1nncn1C (stereo not shown)	-50.87% and -5.235%	-1.284%
O=C(NCc1ccccc1Cn1cncn1)C1CCCC1	11.12%	-0.955%
CN(Cc1cn2c(n1)CN(C(=O)c1cccn1C)CC2)Cc1ccco1	-2.778% and 15.97%	-7.046% and -89.49%
CC(=O)Nc1ccc(C(=O)NCCCn2cccc2)cc1	-28.5%	-22.58%
CC(C)(C)n1cc(C#N)cc1NC(=O)CCNC(=O)c1ccco1	0.6505%	-0.8875% and 6.529%
[H][C@]12CNC[C@@]1(C(=O)NCCCc1ccccc1)CN(C(=O)C1CC1)C2	-2.159%	-9.049%
O=C(CCc1cccnc1)Nc1ccc(OCC2CCOCC2)cc1	15.42%	7.852%

For reference, 6 entries once more:

* CCCC(=O)N1CCc2c(CNS(C)(=O)=O)cncc2C1.Cl | A: 1.082%; B: -19.86%
* Cc1ccc(Cc2sc(NC(=O)C(C)S(C)(=O)=O)nc2C)cc1 (stereo not shown) | A: -18.28%; B: 0.3987%
* CS(=O)(=O)N[C@@H]1CCN(Cc2ccncc2)[C@H]1Cc1cccnc1 | A: 2.129%; B: -8.152%
* Cc1cc(C)c(CNc2ncnc3ccccc23)c(=O)[nH]1 | A: 24.89%; B: 13.57%
* Cc1nc(N(C)C)nc(NCCc2cnccn2)c1C | A: 15.47%; B: -4.678%
* O=C(O)C(F)(F)F.O=C(c1c[nH]cn1)N1CCC(F)(F)C2(CCN(c3cnccn3)C2)C1 (stereo not shown) | A: 1.484% and -11.89%; B: 13.51% and -24.64%